Measured values reported in PMC3308951.
No constants are given. Whether binding was seen depends on the method and setting. Binding seen in cells or lysates may run through a third protein.

Protein sequences, listed by entry. Tags and fused reporters are not part of them. Residues count along the entry.
UniProt Q9Y6W5: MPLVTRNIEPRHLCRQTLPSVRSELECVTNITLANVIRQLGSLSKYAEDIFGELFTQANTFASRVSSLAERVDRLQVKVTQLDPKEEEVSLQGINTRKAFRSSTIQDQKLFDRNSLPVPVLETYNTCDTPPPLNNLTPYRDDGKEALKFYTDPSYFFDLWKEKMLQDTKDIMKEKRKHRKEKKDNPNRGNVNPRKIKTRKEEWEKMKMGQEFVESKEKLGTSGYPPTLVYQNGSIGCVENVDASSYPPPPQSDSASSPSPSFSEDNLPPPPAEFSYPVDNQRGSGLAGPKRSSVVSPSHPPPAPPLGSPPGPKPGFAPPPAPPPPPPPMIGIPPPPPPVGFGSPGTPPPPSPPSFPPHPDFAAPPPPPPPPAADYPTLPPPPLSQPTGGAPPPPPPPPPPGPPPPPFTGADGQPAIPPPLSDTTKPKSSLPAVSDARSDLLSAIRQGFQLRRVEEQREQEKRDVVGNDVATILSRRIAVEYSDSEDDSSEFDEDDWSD
UniProt P40198, residues 35-252: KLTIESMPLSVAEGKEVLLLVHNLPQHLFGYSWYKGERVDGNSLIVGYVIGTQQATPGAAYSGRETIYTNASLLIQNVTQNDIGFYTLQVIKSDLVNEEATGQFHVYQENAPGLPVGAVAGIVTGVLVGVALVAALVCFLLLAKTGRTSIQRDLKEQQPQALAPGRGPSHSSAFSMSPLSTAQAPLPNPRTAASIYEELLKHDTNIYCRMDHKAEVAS

Biological target: GFP-tagged human WAVE2 wild type (human) (UniProt Q9Y6W5)
Assay: co-IP; 293 cells transfected with combinations of GFP-WAVE2, myc-Nck1, CEACAM3 WT-HA and vSrc; lysates with 3 µg polyclonal rabbit anti-GFP over night, protein A/G sepharose 1 h, 4°C, three washes with Triton buffer; blots with myc-, HA- and GFP antibodies

binding: no binding
Substance: HA-tagged CEACAM3 wild type, expressed without vSrc (not tyrosine phosphorylated) (from UniProt P40198 35-252) (receptor)
